These are yes or no findings as the source states them, for the method shown. Some entries that bind do so weakly or less than the wild type. Sequences can lack the tags named with a protein.
Molecular target: T1, BD-ECT1 (Arabidopsis) (UniProt Q3MK94)
T1 sequence: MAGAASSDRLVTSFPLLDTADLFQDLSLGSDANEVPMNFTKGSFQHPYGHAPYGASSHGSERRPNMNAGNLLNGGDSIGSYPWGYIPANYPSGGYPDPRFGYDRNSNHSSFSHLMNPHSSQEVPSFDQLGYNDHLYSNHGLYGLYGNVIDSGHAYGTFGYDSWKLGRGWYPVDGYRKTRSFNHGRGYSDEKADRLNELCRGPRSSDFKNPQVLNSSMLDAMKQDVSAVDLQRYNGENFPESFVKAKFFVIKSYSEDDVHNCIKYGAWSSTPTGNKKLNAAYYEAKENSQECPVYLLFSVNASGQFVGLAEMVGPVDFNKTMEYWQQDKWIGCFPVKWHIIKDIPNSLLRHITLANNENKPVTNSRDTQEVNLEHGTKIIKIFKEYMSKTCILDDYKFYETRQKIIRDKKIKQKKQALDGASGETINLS
Experiment: two-hybrid

B1: MBP-ECT1 (natural protein, Arabidopsis, UniProt Q3MK94 1-428, looked up)
chain: MAGAASSDRLVTSFPLLDTADLFQDLSLGSDANEVPMNFTKGSFQHPYGHAPYGASSHGSERRPNMNAGNLLNGGDSIGSYPWGYIPANYPSGGYPDPRFGYDRNSNHSSFSHLMNPHSSQEVPSFDQLGYNDHLYSNHGLYGLYGNVIDSGHAYGTFGYDSWKLGRGWYPVDGYRKTRSFNHGRGYSDEKADRLNELCRGPRSSDFKNPQVLNSSMLDAMKQDVSAVDLQRYNGENFPESFVKAKFFVIKSYSEDDVHNCIKYGAWSSTPTGNKKLNAAYYEAKENSQECPVYLLFSVNASGQFVGLAEMVGPVDFNKTMEYWQQDKWIGCFPVKWHIIKDIPNSLLRHITLANNENKPVTNSRDTQEVNLEHGTKIIKIFKEYMSKTCILDDYKFYETRQKIIRDKKIKQKKQALDGASGETINLS
binding: binds
